Results published in patent US20060100431A1, “Biologically active compounds” (Amura Therapeutics Limited, priority 2002, published 2006).
Some results were stated once for a whole list of compounds, not compound by compound. Some ranges recur; such a range may be that of the whole group of compounds.

biological target: T1, human cathepsin K (Homo sapiens, UniProt P43235); assay: Cathepsin K peptidase activity assay (Ki); format: biochemical
T1 construct: Dr. Boris Turk (Josef Stefan Institute, Ljubljana, Slovenia)
T1 sequence (P43235 115-329): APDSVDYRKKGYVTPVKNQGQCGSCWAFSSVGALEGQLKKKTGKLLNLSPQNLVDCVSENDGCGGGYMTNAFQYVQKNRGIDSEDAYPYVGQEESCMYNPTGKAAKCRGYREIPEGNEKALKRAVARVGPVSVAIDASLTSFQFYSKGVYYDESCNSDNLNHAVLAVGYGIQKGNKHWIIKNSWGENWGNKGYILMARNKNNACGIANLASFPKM
Procedure, shortened: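 Buffer: 10 mM bis-tris-propane pH 6.5, 1 mM EDTA, 5 mM 2-mercaptoethanol, 1 mM CaCl2; DMSO <1%. Ki assumed reversible, pure-competitive, from Ki^app=Ki(1+[So]/KM^app) by non-linear regression.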

| Structure (SMILES) | Ki, inhibitors of cathepsin K |
| --- | --- |
| CC(C)C[C@H](NC(=O)c1cc2ccccc2s1)C(=O)N1CC[C@@H]2[C@H]1C(=O)CN2C(=O)c1cccnc1 [Example 15, (3aR,6aS)-Benzo[b]thiophene-2-carboxylic acid {(1S)-3-methyl-1-[6-oxo-4-(pyridine-3-carbonyl)-hexahydro-pyrrolo[3,2-b]pyrrole-1-carbonyl]-butyl}-amide] | 1 to 5000 nM |
| CC(C)C[C@H](NC(=O)c1ccc(N(C)C)cc1)C(=O)N1CC[C@@H]2[C@H]1C(=O)CN2C(=O)[C@@H](N)CC(C)(C)C [Example 212, (3aR,6aS)-N-{(1S)-1-[4-((2S)-2-Amino-4,4-dimethyl-pentanoyl)-6-oxo-hexahydro-pyrrolo[3,2-b]pyrrole-1-carbonyl]-3-methyl-butyl}-4-dimethylamino-benzamide] | 1 to 5000 nM |
| CC(C)C[C@H](NC(=O)c1ccc(N(C)C)cc1)C(=O)N1CC[C@@H]2[C@H]1C(=O)CN2C(=O)[C@@H](N)C(C)(C)C [Example 211, (3aR,6aS)-N-{(1S)-1-[4-((2S)-2-Amino-3,3-dimethyl-butyryl)-6-oxo-hexahydro-pyrrolo[3,2-b]pyrrole-1-carbonyl]-3-methyl-butyl}-4-dimethylamino-benzamide] | 1 to 5000 nM |
| CC(C)C[C@H](NC(=O)C1CCN(c2nccc(C(F)(F)F)n2)CC1)C(=O)N1CC[C@@H]2[C@H]1C(=O)CN2C(=O)c1ccccc1 [Example 84, (3aR,6aS)-1-(4-Trifluoromethyl-pyrimidin-2-yl)-piperidine-4-carboxylic acid [(1S)-1-(4-benzoyl-6-oxo-hexahydro-pyrrolo[3,2-b]pyrrole-1-carbonyl)-3-methyl-butyl]-amide] | 1 to 5000 nM |
| CC(C)C[C@H](NC(=O)c1cccc(CN)c1)C(=O)N1CC[C@@H]2[C@H]1C(=O)CN2C(=O)Cc1ccccc1 [Example 118, (3aR,6aS)-3-Aminomethyl-N-[(1S)-3-methyl-1-(6-oxo-4-phenylacetyl-hexahydro-pyrrolo[3,2-b]pyrrole-1-carbonyl)-butyl]-benzamide] | 1 to 5000 nM |
| CC(C)CC[C@H](N)C(=O)N1CC(=O)[C@@H]2[C@H]1CCN2C(=O)[C@H](CC(C)C)NC(=O)c1ccc(N(C)C)cc1 [Example 213, (3aR,6aS)-N-{(1S)-1-[4-((2S)-2-Amino-5-methyl-hexanoyl)-6-oxo-hexahydro-pyrrolo[3,2-b]pyrrole-1-carbonyl]-3-methyl-butyl}-4-dimethylamino-benzamide] | 1 to 5000 nM |
| CC(C)C[C@H](NC(=O)c1ccc(N(C)C)cc1)C(=O)N1CC[C@@H]2[C@H]1C(=O)CN2C(=O)c1cccc(F)c1 [Example 63, (3aR,6aS)-4-Dimethylamino-N-{(1S)-1-[4-(3-fluoro-benzoyl)-6-oxo-hexahydro-pyrrolo[3,2-b]pyrrole-1-carbonyl]-3-methyl-butyl}-benzamide] | 1 to 5000 nM |
| CC(C)C[C@H](NC(=O)c1ccc(N(C)C)cc1)C(=O)N1CC[C@@H]2[C@H]1C(=O)CN2C(=O)c1cc2ccccc2o1 [Example 101, (3aR,6aS)-N-{(1S)-1-[4-(Benzofuran-2-carbonyl)-6-oxo-hexahydro-pyrrolo[3,2-b]pyrrole-1-carbonyl]-3-methyl-butyl}-4-dimethylamino-benzamide] | 1 to 5000 nM |
| CC(C)C[C@H](NC(=O)c1ccc(N(C)C)cc1)C(=O)N1CC[C@@H]2[C@H]1C(=O)CN2C(=O)c1ccc(Cl)s1 [Example 166, (3aR,6aS)-N-{(1S)-1-[4-(5-Chloro-thiophene-2-carbonyl)-6-oxo-hexahydro-pyrrolo[3,2-b]pyrrole-1-carbonyl]-3-methyl-butyl}-4-dimethylamino-benzamide] | 1 to 5000 nM |
| CC(C)C[C@H](NC(=O)c1ccc(N(C)C)cc1)C(=O)N1CC[C@@H]2[C@H]1C(=O)CN2C(=O)c1ccc([N+](=O)[O-])cc1 [Example 47, (3aR,6aS)-4-Dimethylamino-N-{(1S)-3-methyl-1-[4-(4-nitro-benzoyl)-6-oxo-hexahydro-pyrrolo[3,2-b]pyrrole-1-carbonyl]-butyl}-benzamide] | 1 to 5000 nM |
| CC(C)C[C@H](NC(=O)c1ccc(N(C)C)cc1)C(=O)N1CC[C@@H]2[C@H]1C(=O)CN2C(=O)c1ccc2cc[nH]c2c1 [Example 99, (3aR,6aS)-4-Dimethylamino-N-{(1S)-1-[4-(1H-indole-6-carbonyl)-6-oxo-hexahydro-pyrrolo[3,2-b]pyrrole-1-carbonyl]-3-methyl-butyl}-benzamide] | 1 to 5000 nM |
| CC(C)C[C@H](NC(=O)c1ccc(C(C)(C)C)cc1)C(=O)N1CC[C@@H]2[C@H]1C(=O)CN2C(=O)c1ccccn1 [Example 4, (3aR,6aS)-4-tert-Butyl-N-{(1S)-3-methyl-1-[6-oxo-4-(pyridine-2-carbonyl)-hexahydro-pyrrolo[3,2-b]pyrrole-1-carbonyl]-butyl}-benzamide] | 1 to 5000 nM |
| CC(C)C[C@H](NC(=O)c1ccc(N(C)C)cc1)C(=O)N1CC[C@@H]2[C@H]1C(=O)CN2C(=O)c1ccc(S(C)(=O)=O)s1 [Example 51, (3aR,6aS)-4-Dimethylamino-N-{(1S)-1-[4-(5-methanesulfonyl-thiophene-2-carbonyl)-6-oxo-hexahydro-pyrrolo[3,2-b]pyrrole-1-carbonyl]-3-methyl-butyl}-benzamide] | 1 to 5000 nM |
| CC(C)C[C@H](NC(=O)c1ccc(C(C)(C)C)cc1)C(=O)N1CC[C@@H]2[C@H]1C(=O)CN2S(=O)(=O)c1ccccc1 [Example 119, (3aR,6aS)-N-[(1S)-1-(4-Benzenesulfonyl-6-oxo-hexahydro-pyrrolo[3,2-b]pyrrole-1-carbonyl)-3-methyl-butyl]-4-tert-butyl-benzamide] | 1 to 5000 nM |
| CC(C)C[C@H](NC(=O)c1ccc(N(C)C)cc1)C(=O)N1CC[C@@H]2[C@H]1C(=O)CN2C(=O)C1CCCC1 [Example 134, (3aR,6aS)-N-[(1S)-1-(4-Cyclopentanecarbonyl-6-oxo-hexahydro-pyrrolo[3,2-b]pyrrole-1-carbonyl)-3-methyl-butyl]-4-dimethylamino-benzamide] | 1 to 5000 nM |
| CC(=O)N(C)[C@@H](CC(C)C)C(=O)N1CC(=O)[C@@H]2[C@H]1CCN2C(=O)[C@H](CC(C)C)NC(=O)c1ccc(N(C)C)cc1 [Example 221, (3aR,6aS)-N-((1S)-1-{4-[(2S)-2-(Acetyl-methyl-amino)-4-methyl-pentanoyl]-6-oxo-hexahydro-pyrrolo[3,2-b]pyrrole-1-carbonyl}-3-methyl-butyl)-4-dimethylamino-benzamide] | 1 to 5000 nM |
| CC(C)C[C@@H](C(=O)N1CC[C@@H]2[C@H]1C(=O)CN2C(=O)c1ccccc1)N(C)C(=O)c1ccc(N(C)C)cc1 [Example 195, (3aR,6aS)-N-[(1S)-1-(4-Benzoyl-6-oxo-hexahydro-pyrrolo[3,2-b]pyrrole-1-carbonyl)-3-methyl-butyl]-4-dimethylamino-N-methyl-benzamide] | 1 to 5000 nM |
| Cc1ccc(C(=O)N[C@@H](CC(C)C)C(=O)N2CC[C@@H]3[C@H]2C(=O)CN3C(=O)c2ccccc2)cc1 [Example 170] | 1 to 5000 nM |
| CC(C)C[C@H](NC(=O)c1ccc(N(C)C)cc1)C(=O)N1CC[C@@H]2[C@H]1C(=O)CN2C(=O)CCC(=O)O [Example 106, (3aS,6aR)-{4-[(2S)-2-(4-Dimethylamino-benzoylamino)-4-methyl-pentanoyl]-3-oxo-hexahydro-pyrrolo[3,2-b]pyrrol-1-yl}-4-oxo-butyric acid] | 1 to 5000 nM |
| CC(C)CC(=O)N1CC(=O)[C@@H]2[C@H]1CCN2C(=O)[C@H](CC(C)C)NC(=O)c1ccc(N(C)C)cc1 [Example 130, (3aR,6aS)-4-Dimethylamino-N-{(1S)-3-methyl-1-[4-(3-methyl-butyryl)-6-oxo-hexahydro-pyrrolo[3,2-b]pyrrole-1-carbonyl]-butyl}-benzamide] | 1 to 5000 nM |
| CC(C)C[C@H](NC(=O)c1ccc(N(C)C)cc1)C(=O)N1CC[C@@H]2[C@H]1C(=O)CN2C(=O)C1CCC1 [Example 133, (3aR,6aS)-N-[(1S)-1-(4-Cyclobutanecarbonyl-6-oxo-hexahydro-pyrrolo[3,2-b]pyrrole-1-carbonyl)-3-methyl-butyl]-4-dimethylamino-benzamide] | 1 to 5000 nM |
| CC(C)C[C@H](NC(=O)c1ccc(N(C)C)cc1)C(=O)N1CC[C@@H]2[C@H]1C(=O)CN2C(=O)CCN [Example 108, (3aR,6aS)-N-{(1S)-1-[4-(3-Amino-propionyl)-6-oxo-hexahydro-pyrrolo[3,2-b]pyrrole-1-carbonyl]-3-methyl-butyl}-4-dimethylamino-benzamide] | 1 to 5000 nM |
| CC(C)C[C@H](NC(=O)c1ccc(N(C)C)cc1)C(=O)N1CC[C@@H]2[C@H]1C(=O)CN2C(=O)[C@@H](N)COCc1ccccc1 [Example 219, (3aR,6aS)-N-{(1S)-1-[4-((2S)-2-Amino-3-benzyloxy-propionyl)-6-oxo-hexahydro-pyrrolo[3,2-b]pyrrole-1-carbonyl]-3-methyl-butyl}-4-dimethylamino-benzamide] | 1 to 5000 nM |
| CC(C)C[C@H](NC(=O)c1ccc(N(C)C)cc1)C(=O)N1CC[C@@H]2[C@H]1C(=O)CN2C(=O)c1ccc2[nH]ccc2c1 [Example 98, (3aR,6aS)-4-Dimethylamino-N-{(1S)-1-[4-(1H-indole-5-carbonyl)-6-oxo-hexahydro-pyrrolo[3,2-b]pyrrole-1-carbonyl]-3-methyl-butyl}-benzamide] | 1 to 5000 nM |
